Common to all, as to assay: co-IP; anti-FLAG agarose IP of PP5-FLAG (WT or mutants) from lysate of transfected HEK293 cells, 2 h at 4 °C; washes in 20 mM Tris-HCl pH 7.4, 100 mM NaCl, 1 mM MgCl2, 0.1% NP40; endogenous partners by immunoblot; some panels with CK1δ-myc co-expressed or 2 µM IC261 for 16 h
Background: Immunoblotting shows a protein as a band on a membrane.

Amino acid sequences for entries named in this document (tags omitted).
UniProt P04150: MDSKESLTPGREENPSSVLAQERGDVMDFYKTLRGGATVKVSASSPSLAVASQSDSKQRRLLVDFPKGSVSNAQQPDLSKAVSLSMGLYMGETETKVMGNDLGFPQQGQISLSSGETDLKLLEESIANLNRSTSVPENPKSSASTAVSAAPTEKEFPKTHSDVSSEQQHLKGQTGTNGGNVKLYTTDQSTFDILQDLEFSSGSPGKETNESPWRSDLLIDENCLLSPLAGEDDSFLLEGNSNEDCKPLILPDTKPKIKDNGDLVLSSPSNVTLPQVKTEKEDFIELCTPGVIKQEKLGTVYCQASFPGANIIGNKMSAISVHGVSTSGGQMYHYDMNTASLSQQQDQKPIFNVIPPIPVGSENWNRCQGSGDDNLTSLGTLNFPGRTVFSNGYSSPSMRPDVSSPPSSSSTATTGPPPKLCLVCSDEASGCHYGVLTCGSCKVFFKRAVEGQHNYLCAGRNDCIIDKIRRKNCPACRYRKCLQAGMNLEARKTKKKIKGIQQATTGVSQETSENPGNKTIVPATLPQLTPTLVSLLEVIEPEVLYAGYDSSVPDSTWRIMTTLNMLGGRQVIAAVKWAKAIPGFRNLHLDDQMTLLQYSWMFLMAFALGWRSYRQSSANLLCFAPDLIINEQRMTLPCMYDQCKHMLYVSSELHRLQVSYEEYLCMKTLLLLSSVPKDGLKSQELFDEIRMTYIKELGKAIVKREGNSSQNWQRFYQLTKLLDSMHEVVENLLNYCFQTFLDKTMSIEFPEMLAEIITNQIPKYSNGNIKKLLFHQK

Assay [1] concerns the target T1, PP5-FLAG-K97E/R101E, TPR domain mutant (UniProt P53041).
T1 sequence: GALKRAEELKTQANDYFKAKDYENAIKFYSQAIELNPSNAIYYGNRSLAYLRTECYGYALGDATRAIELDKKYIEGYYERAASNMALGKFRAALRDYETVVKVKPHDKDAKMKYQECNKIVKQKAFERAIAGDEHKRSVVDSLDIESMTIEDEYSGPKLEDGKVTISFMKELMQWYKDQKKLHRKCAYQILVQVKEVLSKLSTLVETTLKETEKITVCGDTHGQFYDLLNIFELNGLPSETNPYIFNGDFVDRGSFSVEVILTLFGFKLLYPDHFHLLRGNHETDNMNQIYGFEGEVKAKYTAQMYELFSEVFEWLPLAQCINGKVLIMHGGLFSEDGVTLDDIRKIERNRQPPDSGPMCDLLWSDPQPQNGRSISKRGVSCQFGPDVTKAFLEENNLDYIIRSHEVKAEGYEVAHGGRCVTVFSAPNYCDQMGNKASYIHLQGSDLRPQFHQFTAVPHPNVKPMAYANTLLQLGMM

Assay [2] addresses T2, PP5-FLAG-K430R, non-SUMOylatable mutant (UniProt P53041).
T2 sequence: T1 sequence with E75K, E79R, K408R

Assay [3] has as its target T3, PP5-FLAG-T362E, phosphomimetic mutant (UniProt P53041).
T3 sequence: T1 sequence with E75K, E79R, T340E

Assay [4] addresses T4, serine/threonine protein phosphatase 5 (PP5), wild-type PP5-FLAG (UniProt P53041).
T4 sequence: T1 sequence with E75K, E79R

Numbering of substitutions follows the chain as printed. No constants are given. Whether binding was seen depends on the method and setting. Binding seen in cells or lysates may run through a third protein. Some results given as binding are weak or reduced against the parent protein; the word gives no strength. Sequences can lack the tags named with a protein.

Consider “glucocorticoid receptor (GR), endogenous (from UniProt P04150 1-777)”, for which the binding entry in assay [1] is reported as “no binding”; in assay [2] it was “binds”; in assay [3] it was “binds”; in assay [4], “binds”.

For the origin of these results see publication PMC11549447.
